# Article PMC11024458
# Key:
# [1] = target: T1, VdSti1 (pGBKT7-VdSti1 bait) (Verticillium dahliae) (UniProt G2X8V1); assay: two-hybrid; one-to-one verification: pGADT7 prey with pGBKT7-VdSti1 in yeast; SD-Leu-Trp, then SD-His-Leu-Trp-Ade with X-alpha-gal, growth observed after 1 week
# T1 sequence: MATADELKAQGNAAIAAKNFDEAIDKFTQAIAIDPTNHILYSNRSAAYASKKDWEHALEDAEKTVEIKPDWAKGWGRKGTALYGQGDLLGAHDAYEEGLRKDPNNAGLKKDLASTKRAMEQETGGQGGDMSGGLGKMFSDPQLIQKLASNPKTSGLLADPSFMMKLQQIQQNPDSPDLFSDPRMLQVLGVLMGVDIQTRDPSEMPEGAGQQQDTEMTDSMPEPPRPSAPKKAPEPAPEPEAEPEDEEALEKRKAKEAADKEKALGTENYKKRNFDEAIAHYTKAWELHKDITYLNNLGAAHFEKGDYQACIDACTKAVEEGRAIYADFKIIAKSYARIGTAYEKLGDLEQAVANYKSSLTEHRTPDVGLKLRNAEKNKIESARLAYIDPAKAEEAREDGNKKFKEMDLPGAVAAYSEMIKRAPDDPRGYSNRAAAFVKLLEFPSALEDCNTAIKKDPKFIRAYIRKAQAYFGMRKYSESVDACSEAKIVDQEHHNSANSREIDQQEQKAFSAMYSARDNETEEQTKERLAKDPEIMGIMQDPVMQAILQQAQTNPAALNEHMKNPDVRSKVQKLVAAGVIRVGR
# [2] = target: T2, VdSti1-nLUC (Verticillium dahliae) (UniProt G2X8V1); assay: split reporter; luciferase complementation imaging (LCI): Agrobacterium with VdSti1-nLUC and VdExt2-cLUC mixed 1:1 and injected into 4 week-old tobacco (N. benthamiana) leaves; signal read with a cooled CCD
# T2 sequence: T1 sequence
substance,measurement,setting,value
exostosin-2 protein VdExt2 (pGADT7 prey) (Verticillium dahliae),binding,[1],binds
VdExt2-cLUC (Verticillium dahliae),binding,[2],binds

# These are yes or no findings as the source states them, for the method shown. Binding calls can cover weak binding; strength is not graded here. For some assays here: Binding seen in cells or lysates may run through a third protein. For some assays here: Sequences can lack the tags named with a protein.
